Results are given in words; binding and its absence hold for the method and conditions named. For some assays here: Binding seen in cells or lysates may run through a third protein. Some results given as binding are weak or reduced against the parent protein; the word gives no strength. For some assays here: Sequences can lack the tags named with a protein.
Columns and labels:
[1] = target: MPC2-GFP-10xHis (human) (UniProt O95563); test: cross-linking; human MPC2 in isolated yeast mitochondrial extracts, 0.2 mM DSS (11.4 Å linker), electrophoretic separation
[2] = target: T1, human MPC1 fused to an 8xHis tag (human) (UniProt Q9Y5U8); test: co-purification (Co-IMAC, then gel filtration); co-expression set 1 in yeast 3Δ; membranes extracted with 1% DDM; MPC1-8xHis held on TALON cobalt beads, then Superdex 200 in 0.03% DDM; bands identified by mass spectrometry, MPC2-GFP by silver staining and in-gel fluorescence
T1 sequence: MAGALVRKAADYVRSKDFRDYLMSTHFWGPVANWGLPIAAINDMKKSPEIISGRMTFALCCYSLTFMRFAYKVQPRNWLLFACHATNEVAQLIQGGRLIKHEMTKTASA

Protein sequences, listed by entry. Tags and fused reporters are not part of them.
UniProt O95563: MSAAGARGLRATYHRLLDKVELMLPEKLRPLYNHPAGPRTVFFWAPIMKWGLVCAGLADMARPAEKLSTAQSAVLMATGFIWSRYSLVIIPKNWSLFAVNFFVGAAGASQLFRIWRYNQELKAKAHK
UniProt P02406: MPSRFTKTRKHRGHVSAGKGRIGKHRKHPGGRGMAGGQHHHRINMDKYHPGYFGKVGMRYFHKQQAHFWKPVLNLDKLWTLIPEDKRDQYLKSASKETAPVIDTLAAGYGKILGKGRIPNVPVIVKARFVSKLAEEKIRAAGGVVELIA

Row | Substance | binding [1] | binding [2]
1 | MPC2-GFP-10xHis (from UniProt O95563 1-127) | binds | –
2 | yeast 60 S ribosomal protein L28 (from UniProt P02406 1-149) | – | binds
